Source: PMC6127284
No constants are given. Whether binding was seen depends on the method and setting. Binding calls can cover weak binding; strength is not graded here.

Target: T1, DISC1 amino acids 361–385 peptide (array) (human) (UniProt Q9NRI5)
T1 sequence (peptide): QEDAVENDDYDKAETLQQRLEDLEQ
Experiment: peptide or protein array; human DISC1 peptide array and alanine scanning peptide array of DISC1 amino acids 361-385, probed with FLAG-C0-C1-C2 (cytoplasmic tail of GluN1 fused to FLAG)

“cytoplasmic tail of GluN1 fused to FLAG (domain or fragment)” was tested, and the binding was “binds”.
